Assay results published in the supplement of paper PMC6078165.
Values are relative to the signal before dosing, not to a vehicle control; the signal also falls without drug.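 Fibroblast labels denote human fibroblasts, mainly primary ones from uterus (C12385, HUF), lung (H6013), bone (Hs27A), adrenal (HADF) and skin (WS1), plus mammary HMF and breast cancer-associated Hs343T. Cancer cells are basal-like or mesenchymal-like triple-negative breast cancer lines. A hit is a response shift exceeding 3x replicate standard deviation. The tissue of the other fibroblasts is not given here.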

Test system: Hs578T
Assay: relative JC-1 red fluorescence (viability) vs pre-drug, coculture with fibroblast (fraction); higher = more viable cancer cells
Conditions: 10 µM
Experimental: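 JC-1 labelled TNBC cells cocultured 1:1 (1,500 cells each) with CellTrace Violet stained primary or stromal fibroblasts in 384-well plates in FluoroBrite medium, treated with one of 42 anticancer drugs at 0.1, 1, 10 or 100 uM. JC-1 red fluorescence (mitochondrial integrity in cancer cells only) was read by plate reader every 8 h for 72 h. Values are normalised to each well's pre-drug value. The stock of one drug was tenfold lower, so its dose labels may be too high.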

CCN(CC)CCNC(=O)c1c(C)[nH]c(/C=C2\C(=O)Nc3ccc(F)cc32)c1C [Sunitinib]
Conditions | relative JC-1 red fluorescence
8 h | 0.982
16 h | 0.557
24 h | 0.438
32 h | 0.381
40 h | 0.333
48 h | 0.293
56 h | 0.263
64 h | 0.233
72 h | 0.223

relative JC-1 red fluorescence
Conditions | 8 h | 16 h | 24 h | 32 h | 40 h | 48 h | 56 h | 64 h | 72 h
coculture fibroblast: C12385 | 0.776 | 0.655 | 0.662 | 0.553 | 0.49 | 0.441 | 0.392 | 0.366 | 0.343
coculture fibroblast: H6013 | 0.891 | 0.758 | 0.713 | 0.658 | 0.53 | 0.436 | 0.37 | 0.333 | 0.2943
coculture fibroblast: H6019 | 0.822 | 0.777 | 0.746 | 0.693 | 0.677 | 0.676 | 0.667 | 0.645 | 0.615
coculture fibroblast: H6076 | 0.94 | 0.618 | 0.63 | 0.604 | 0.552 | 0.539 | 0.484 | 0.473 | 0.446
coculture fibroblast: H6231 | 0.819 | 0.902 | 0.95 | 0.905 | 0.816 | 0.766 | 0.737 | 0.728 | 0.722
coculture fibroblast: HADF | 0.95 | 0.671 | 0.545 | 0.464 | 0.415 | 0.3628 | 0.3276 | 0.302 | 0.271
coculture fibroblast: HCFa | 0.915 | 0.841 | 0.764 | 0.692 | 0.589 | 0.541 | 0.499 | 0.427 | 0.361
coculture fibroblast: HCPF | 0.96 | 0.732 | 0.624 | 0.519 | 0.416 | 0.3707 | 0.324 | 0.259 | 0.227
coculture fibroblast: HHSteC | 0.871 | 0.707 | 0.63 | 0.486 | 0.388 | 0.324 | 0.268 | 0.219 | 0.185
coculture fibroblast: HMF | 0.897 | 0.857 | 0.913 | 0.887 | 0.839 | 0.815 | 0.777 | 0.7584 | 0.7405
coculture fibroblast: HPFa | 0.961 | 0.791 | 0.833 | 0.675 | 0.61 | 0.586 | 0.71 | 0.676 | 0.639
coculture fibroblast: HUF | 0.8885 | 0.844 | 0.817 | 0.74 | 0.709 | 0.659 | 0.585 | 0.508 | 0.438
coculture fibroblast: Hs27A | 0.95 | 0.796 | 0.871 | 0.932 | 0.863 | 0.922 | 0.741 | 0.637 | 0.504
coculture fibroblast: Hs343T | 0.83273 | 0.658 | 0.582 | 0.575 | 0.544 | 0.51 | 0.444 | 0.334 | 0.274
coculture fibroblast: WS1 | 0.767 | 0.72 | 0.697 | 0.643 | 0.59 | 0.54 | 0.465 | 0.423 | 0.347
